Our source for the binding values is PMC5493759, “Neurovascular EGFL7 regulates adult neurogenesis in the subventricular zone and thereby affects olfactory perception” (Nature Communications, 2017).

The chains behind the UniProt entries cited, without tags or fusion partners. Residues count along the entry.
UniProt Q01705, residues 19-1725: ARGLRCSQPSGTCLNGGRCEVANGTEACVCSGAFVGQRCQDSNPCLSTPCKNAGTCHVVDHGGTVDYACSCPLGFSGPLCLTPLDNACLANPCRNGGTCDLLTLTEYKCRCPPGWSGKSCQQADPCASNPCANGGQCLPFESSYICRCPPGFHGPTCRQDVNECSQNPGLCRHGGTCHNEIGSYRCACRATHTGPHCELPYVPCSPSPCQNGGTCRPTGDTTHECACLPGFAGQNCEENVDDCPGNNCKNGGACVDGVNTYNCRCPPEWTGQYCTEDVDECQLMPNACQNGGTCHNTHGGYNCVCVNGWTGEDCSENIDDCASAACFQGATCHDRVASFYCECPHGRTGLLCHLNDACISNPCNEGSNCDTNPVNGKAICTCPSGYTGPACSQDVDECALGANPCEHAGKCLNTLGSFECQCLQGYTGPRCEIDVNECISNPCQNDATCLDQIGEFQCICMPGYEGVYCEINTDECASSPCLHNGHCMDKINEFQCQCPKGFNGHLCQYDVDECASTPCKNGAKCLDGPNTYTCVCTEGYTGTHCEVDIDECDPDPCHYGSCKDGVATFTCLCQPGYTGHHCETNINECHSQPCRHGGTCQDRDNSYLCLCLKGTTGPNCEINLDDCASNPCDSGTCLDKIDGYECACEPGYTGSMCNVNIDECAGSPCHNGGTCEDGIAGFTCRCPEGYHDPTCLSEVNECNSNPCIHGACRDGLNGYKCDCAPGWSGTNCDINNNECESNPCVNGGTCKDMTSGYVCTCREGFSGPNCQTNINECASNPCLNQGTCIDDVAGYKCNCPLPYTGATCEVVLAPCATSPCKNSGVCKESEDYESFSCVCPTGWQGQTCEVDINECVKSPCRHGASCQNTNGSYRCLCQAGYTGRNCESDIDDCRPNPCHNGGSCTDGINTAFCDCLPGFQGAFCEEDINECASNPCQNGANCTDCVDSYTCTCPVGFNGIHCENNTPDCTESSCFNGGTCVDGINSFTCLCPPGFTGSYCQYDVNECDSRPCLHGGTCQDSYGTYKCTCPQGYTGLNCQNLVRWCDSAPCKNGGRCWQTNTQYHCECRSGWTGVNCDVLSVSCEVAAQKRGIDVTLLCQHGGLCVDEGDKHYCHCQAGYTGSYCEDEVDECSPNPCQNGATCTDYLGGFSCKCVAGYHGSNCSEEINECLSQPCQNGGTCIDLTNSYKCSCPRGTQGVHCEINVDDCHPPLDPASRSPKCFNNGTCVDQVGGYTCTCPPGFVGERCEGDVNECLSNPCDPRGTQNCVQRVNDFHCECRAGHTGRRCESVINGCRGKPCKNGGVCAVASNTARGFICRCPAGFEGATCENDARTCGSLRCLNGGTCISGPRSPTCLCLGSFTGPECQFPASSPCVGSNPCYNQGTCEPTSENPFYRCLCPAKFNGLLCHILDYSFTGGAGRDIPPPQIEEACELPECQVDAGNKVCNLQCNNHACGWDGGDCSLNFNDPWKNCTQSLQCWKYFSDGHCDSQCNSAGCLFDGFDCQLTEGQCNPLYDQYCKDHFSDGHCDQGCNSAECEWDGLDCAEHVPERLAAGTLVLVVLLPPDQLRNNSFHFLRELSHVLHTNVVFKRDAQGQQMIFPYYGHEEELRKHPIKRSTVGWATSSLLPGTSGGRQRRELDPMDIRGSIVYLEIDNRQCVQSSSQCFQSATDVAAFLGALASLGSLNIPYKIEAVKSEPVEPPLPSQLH
UniProt Q9QXX0, residues 34-1218: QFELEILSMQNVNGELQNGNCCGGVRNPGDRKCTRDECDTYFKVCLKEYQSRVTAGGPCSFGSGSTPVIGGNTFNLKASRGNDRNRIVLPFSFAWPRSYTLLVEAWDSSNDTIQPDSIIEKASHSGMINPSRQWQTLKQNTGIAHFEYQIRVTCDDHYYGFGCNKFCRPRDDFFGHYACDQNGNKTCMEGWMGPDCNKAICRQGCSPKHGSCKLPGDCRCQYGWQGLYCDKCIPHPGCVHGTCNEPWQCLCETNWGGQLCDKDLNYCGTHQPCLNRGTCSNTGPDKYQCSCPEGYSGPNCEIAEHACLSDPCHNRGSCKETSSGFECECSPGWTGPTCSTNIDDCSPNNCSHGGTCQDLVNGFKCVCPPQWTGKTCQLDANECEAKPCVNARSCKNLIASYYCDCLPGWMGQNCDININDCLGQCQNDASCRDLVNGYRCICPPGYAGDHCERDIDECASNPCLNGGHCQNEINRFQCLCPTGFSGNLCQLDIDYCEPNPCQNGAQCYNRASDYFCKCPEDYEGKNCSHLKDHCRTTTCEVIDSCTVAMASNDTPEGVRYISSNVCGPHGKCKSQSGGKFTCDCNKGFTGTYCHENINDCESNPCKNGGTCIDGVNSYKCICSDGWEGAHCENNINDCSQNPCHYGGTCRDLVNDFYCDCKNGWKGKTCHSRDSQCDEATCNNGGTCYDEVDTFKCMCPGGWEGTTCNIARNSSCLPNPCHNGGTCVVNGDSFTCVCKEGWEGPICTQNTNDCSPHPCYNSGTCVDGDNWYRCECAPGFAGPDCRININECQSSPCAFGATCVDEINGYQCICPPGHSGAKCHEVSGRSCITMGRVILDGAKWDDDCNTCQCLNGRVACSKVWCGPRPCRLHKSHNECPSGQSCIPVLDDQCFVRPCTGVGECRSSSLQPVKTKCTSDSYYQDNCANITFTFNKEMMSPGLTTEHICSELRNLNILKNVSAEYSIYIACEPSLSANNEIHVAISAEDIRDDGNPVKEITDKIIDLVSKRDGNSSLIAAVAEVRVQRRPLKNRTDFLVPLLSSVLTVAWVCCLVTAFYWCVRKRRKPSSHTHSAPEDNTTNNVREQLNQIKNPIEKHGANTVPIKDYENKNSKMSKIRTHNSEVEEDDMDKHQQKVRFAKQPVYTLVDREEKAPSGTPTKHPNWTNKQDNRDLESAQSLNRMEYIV

Results are given in words; binding and its absence hold for the method and conditions named. Binding seen in cells or lysates may run through a third protein. Some binding calls cover weakened binding; strength is not graded here. For some assays here: Sequences can lack the tags named with a protein.

In assay [1] the target is V5-tagged Notch1 extracellular domain (UniProt Q01705). As to the kind of experiment: co-IP; V5-tagged Notch1-ECD and Flag-tagged ligands (Jagged1 or Dll4) co-expressed in HEK293 in the absence or presence of EGFL7; quantitative western blot (Odyssey); n=3. Background: A western blot detects proteins with antibodies after separation by electrophoresis.
Assay [2] shares this target. Description: co-IP; Flag-tagged EGFL7 co-expressed with V5-tagged Notch ECDs or Notch1-ECD deletion mutants in HEK293; lysate immunoprecipitated with Immunosorb A overnight at 4 °C; quantitative western blot (Odyssey); n=3.

As to “Flag-tagged Jagged1 (from UniProt Q9QXX0 34-1218) (ligand)”, the binding result in assay [1] is reported as “binds”.

B1: Flag-tagged EGFL7 (epidermal growth factor-like protein 7) (natural protein, UniProt Q9QXT5 22-275, looked up)
chain: EHVYRPSRRVCTVGISGGSISETFVQRVYQPYLTTCDGHRACSTYRTIYRTAYRRSPGVTPARPRYACCPGWKRTSGLPGACGAAICQPPCGNGGSCIRPGHCRCPVGWQGDTCQTDVDECSTGEASCPQRCVNTVGSYWCQGWEGQSPSADGTRCLSKEGPSPVAPNPTAGVDSMAREEVYRLQARVDVLEQKLQLVLAPLHSLASRSTEHGLQDPGSLLAHSFQQLDRIDSLSEQVSFLEEHLGSCSCKKDL
notes: epidermal growth factor-like protein 7 (EGFL7); the same molecule is used here; source: HEK293, transiently transfected, in lysate
B1: the binding entry in assay [2] was “binds”.
